According to patent publication US20230312680A1:
No constants are given. Whether binding was seen depends on the method and setting. Binding can be weak; no strength is given. Ends that are not written are not given here.

Key:
[1] = target: HLA-B*44:02 (human); assay: UV-ligand exchange, b2m ELISA; grade of exchange yield
[2] = target: HLA-B*07:02 (human); assay: as above

binding [1]	binding [2]	Binder
binds	–	MEQKQLQKRF [… (SEQ ID No 212)]
binds	–	VEQTRAGSLL [… (SEQ ID No 214)]
–	binds	NPDLRRNVL [… (SEQ ID No 390)]
binds	–	REEDAALFKAW [… (SEQ ID No 415)]
binds	–	AEVLLPRLV [… (SEQ ID No 197)]
binds	–	EEDAALFKAW [… (SEQ ID No 191)]
binds	–	EEAQWVRKY [… (SEQ ID No 403)]
binds	–	EDGRLVIEF [… (SEQ ID No 406)]
binds	–	TEVSRTEL [TEVSRTEL (SEQ ID No 209)]
binds	–	LEKALQVF [LEKALQVF (SEQ ID No 408)]
binds	–	SFEQVVNELF [… (SEQ ID No 398)]
binds	–	IEALSGKIEL [… (SEQ ID No 413)]
binds	–	KEATEAQSL [… (SEQ ID No 182)]
binds	–	HESEATASW [… (SEQ ID No 202)]
binds	–	SEDPSKLEA [… (SEQ ID No 410)]
binds	–	VEAADIFQNF [… (SEQ ID No 210)]
binds	–	RELLHLVTL [… (SEQ ID No 399)]
binds	–	HETETRTTW [… (SEQ ID No 55)]
binds	–	GEGPKTSW [GEGPKTSW (SEQ ID No 181)]
binds	–	GEIEIHLL [GEIEIHLL (SEQ ID No 400)]
binds	–	REAGDEFEL [… (SEQ ID No 179)]

binding [1]	binding [2]	Binder
binds	–	REAGDEFELRY [… (SEQ ID No 180)]
binds	–	AEFLLRIFL [… (SEQ ID No 52)]
binds	–	SEPDTTASW [… (SEQ ID No 56)]
binds	–	QESDLRLFL [… (SEQ ID No 57)]
binds	–	YEFKFPNRL [… (SEQ ID No 192)]
binds	–	RELANDELIL [… (SEQ ID No 402)]
binds	–	AEIEPKADG [… (SEQ ID No 175)]
binds	–	TEARATSDSW [… (SEQ ID No 207)]
binds	–	GEAQTRIAW [… (SEQ ID No 187)]
binds	–	NELFRDGVNW [… (SEQ ID No 178)]
binds	–	SEITRIEM [SEITRIEM (SEQ ID No 205)]
–	binds	SPGAQRTFFQL [… (SEQ ID No 389)]
binds	–	AEDKRHYSV [… (SEQ ID No 195)]
binds	–	YEVARILNL [… (SEQ ID No 190)]
binds	–	RETSTSEETSL [… (SEQ ID No 204)]
–	binds	APSTPRITTF [… (SEQ ID No 391)]
binds	–	REFVLSKGDAGL [… (SEQ ID No 409)]
binds	–	REASGLLSL [… (SEQ ID No 396)]
binds	–	TEVSRTEAI [… (SEQ ID No 208)]
binds	–	GEMEQKQL [GEMEQKQL (SEQ ID No 58)]
binds	–	SESVTSRTSY [… (SEQ ID No 206)]

Second part, the binder before the results:

Binder	binding [1]	binding [2]
QEILTQVKQ [… (SEQ ID No 412)]	binds	–
KEFLFNMY [KEFLFNMY (SEQ ID No 189)]	binds	–
SENVTMKVV [… (SEQ ID No 59)]	binds	–
AETILTFHAF [… (SEQ ID No 201)]	binds	–
IEHSTQAQDTL [… (SEQ ID No 203)]	binds	–
MEHPGKLLF [… (SEQ ID No 53)]	binds	–
REGPEEPGL [… (SEQ ID No 186)]	binds	–
REIDESLIFY [… (SEQ ID No 199)]	binds	–
AEHEGVSVL [… (SEQ ID No 407)]	binds	–
AEATARLNVF [… (SEQ ID No 174)]	binds	–
AESIPTVSF [… (SEQ ID No 200)]	binds	–
KESIPRWYY [… (SEQ ID No 213)]	binds	–
TEVGTMNLF [… (SEQ ID No 177)]	binds	–
KEVDPTSHSY [… (SEQ ID No 194)]	binds	–
KPIESTLVA [… (SEQ ID No 392)]	–	binds
AEFAKKQPWW [… (SEQ ID No 188)]	binds	–
AEAQVGDERDY [… (SEQ ID No 173)]	binds	–

Binder	binding [1]	binding [2]
LEAQQEAL [LEAQQEAL (SEQ ID No 193)]	binds	–
NEAIMHQY [NEAIMHQY (SEQ ID No 404)]	binds	–
QEAARAAL [QEAARAAL (SEQ ID No 198)]	binds	–
AEIEPKADGSW [… (SEQ ID No 176)]	binds	–
FPFNPLDF [FPFNPLDF (SEQ ID No 386)]	–	binds
REGDTVQLL [… (SEQ ID No 397)]	binds	–
SPAPLKLSRTPA [… (SEQ ID No 388)]	–	binds
NEIWTHSY [NEIWTHSY (SEQ ID No 405)]	binds	–
EEKVFPSPLW [… (SEQ ID No 211)]	binds	–
AEITITTQTGY [… (SEQ ID No 54)]	binds	–
AERQPGAASL [… (SEQ ID No 185)]	binds	–
APLKLSRTPA [… (SEQ ID No 387)]	–	binds
REMPGGPVW [… (SEQ ID No 196)]	binds	–
YEKGIMQKV [… (SEQ ID No 183)]	binds	–
EDAALFKAW [… (SEQ ID No 414)]	binds	–
LELPPILVY [… (SEQ ID No 411)]	binds	–
AELEALTDLW [… (SEQ ID No 184)]	binds	–
